Source: US20190284280A1 (ANAPTYSBIO, published 2019)
These are yes or no findings as the source states them, for the method shown. Some entries that bind do so weakly or less than the wild type.

Biological target: soluble cynomolgus monkey TIM-3 fusion (cynomolgus monkey)
Experiment: SPR

B1: exemplary anti-TIM-3 antibody (having heavy and light chains as set forth in SEQ ID NOs: 1 & 2, respectively) (antibody, human IgG4 S228P, kappa, V domains shown)
VH: EVQLLESGGGLVQPGGSLRLSCAAASGFTFSSYDMSWVRQAPGKGLDWVSTISGGGTYTYYQDSVKGRFTISRDNSKNTLYLQMNSLRAEDTAVYYCASMDYWGQGTTVTVSS
VL: DIQMTQSPSSLSASVGDRVTITCRASQSIRRYLNWYHQKPGKAPKLLIYGASTLQSGVPSRFSGSGSGTDFTLTISSLQPEDFAVYYCQQSHSAPLTFGGGTKVEIKR
modifications: N-glycosylation at asparagine residue 290 of SEQ ID NO:1
notes: Humanized IgG4 (human IGHG4*01) / kappa (IGKC*01); also called exemplary humanized monoclonal anti-TIM-3 antibody; anti-TIM-3 mAb
For B1, the binding was “binds”.
